Laboratory results: PMC11574084
No constants are given. Whether binding was seen depends on the method and setting. Binding seen in cells or lysates may run through a third protein. Some entries that bind do so weakly or less than the wild type. Each block holds one molecule with its values, some of them ahead of it.

Chains of the proteins cited; added tags and fusions are not shown.
UniProt O00629: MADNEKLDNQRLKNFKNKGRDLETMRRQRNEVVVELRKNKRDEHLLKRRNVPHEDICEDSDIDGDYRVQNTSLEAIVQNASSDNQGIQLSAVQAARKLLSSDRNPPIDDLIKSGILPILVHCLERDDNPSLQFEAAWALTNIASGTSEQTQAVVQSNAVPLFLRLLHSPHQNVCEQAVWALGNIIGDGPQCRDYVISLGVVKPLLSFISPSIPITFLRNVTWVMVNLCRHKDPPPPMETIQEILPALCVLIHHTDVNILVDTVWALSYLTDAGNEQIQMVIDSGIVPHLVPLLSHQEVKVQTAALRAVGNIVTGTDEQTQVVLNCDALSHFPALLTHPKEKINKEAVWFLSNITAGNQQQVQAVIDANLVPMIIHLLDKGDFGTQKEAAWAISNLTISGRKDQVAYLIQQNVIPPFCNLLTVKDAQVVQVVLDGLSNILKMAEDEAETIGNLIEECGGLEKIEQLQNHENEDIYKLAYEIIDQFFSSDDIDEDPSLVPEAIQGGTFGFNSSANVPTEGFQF

Experiments:
[1] = biological target: T1, IRF1 (human (endogenous in HUVEC)) (UniProt P10914); experiment: co-IP; lysates of HUVEC cells with or without human IFN-γ (50 ng/mL) for 8 h; IP with anti-KPNA4 or anti-IRF1 antibody, western blotting for IRF1 or KPNA4
T1 sequence: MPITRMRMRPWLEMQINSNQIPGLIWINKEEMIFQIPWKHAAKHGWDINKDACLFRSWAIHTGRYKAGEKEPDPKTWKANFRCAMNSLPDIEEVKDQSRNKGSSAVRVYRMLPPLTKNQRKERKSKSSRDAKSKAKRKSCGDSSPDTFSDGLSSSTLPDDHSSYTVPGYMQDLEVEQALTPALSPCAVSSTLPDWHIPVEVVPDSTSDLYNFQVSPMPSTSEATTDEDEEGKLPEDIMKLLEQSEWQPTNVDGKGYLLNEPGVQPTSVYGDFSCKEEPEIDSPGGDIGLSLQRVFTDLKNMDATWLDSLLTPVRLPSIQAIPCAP

[2] = biological target: KPNA4 (human (endogenous in HUVEC)) (UniProt O00629); experiment: as above

binding [1]: binds
Molecule: KPNA4 (from UniProt O00629 1-521)

binding [2]: binds
B1: IRF1 (protein, UniProt P10914 1-325)
chain: T1 sequence
